# PubChem BioAssay AID2685 (National Center for Advancing Translational Sciences (NCATS), 2010)
# The list shows a part of the results. The main result of the screen is listed elsewhere. These columns were measured beside it and carry no call. Most of these compounds were active or inconclusive in the main read-out, so they are no random draw. The note in brackets gives the kind of curve behind each potency; many fits are weak.
# Assay: qHTS Assay for Lipid Storage Modulators in Drosophila S3 Cells;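 on cell number change: cells counted by Cell Tracker Red CMTPX staining in the red channel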
# Conditions: BODIPY lipid droplet fluorescence, 18-24 h; for cell number change: measured here: cell count max response, cells fed with added oleic acid
# How it was run: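 Drosophila S3 cells got compounds at several concentrations plus oleic acid (400 uM solution). Laser-scanning cytometry with 488 nm excitation read lipid droplets at 500-530 nm and cells at 575-640 nm. Percent activity was relative to 20 uM Triacsin C.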
# [1] = measured here: lipid fluorescence (Fed channel) AC50, cells fed with added oleic acid
# [2] = measured here: cell number channel AC50, cells fed with added oleic acid
SMILES,cell number change,AC50 [1],AC50 [2]
O=C(NCc1ccccn1)C(=O)NCC1OCCN1S(=O)(=O)c1ccc(Br)cc1 (stereo not given),29.7%,–,–
Cc1ccc(-n2c(SCC(=O)N3CCOCC3)nnc2-c2ccncc2)cc1,–,"820 nM [falling, full curve]",–
O=C(COC(=O)C1CCN(C(=O)Nc2ccccc2)CC1)NCC(F)(F)F,2.26%,"820 nM [falling, full curve]","820 nM [falling, full curve]"
CCN(CC(=O)Nc1c(F)cccc1F)C(=O)CN1C(=O)NC2(CCCC2)C1=O,-38.1%,"4110 nM [falling, full curve]","3660 nM [falling, full curve]"
O=C(c1ccc(-c2ccccc2)cc1)N1CCN(c2ccccc2F)CC1,-0.73%,–,"4.11 nM [rising, full curve, poor fit]"
Cc1cccc(Cn2c(=O)n(Cc3ccco3)c(=O)c3ccccc32)c1,–,"11600 nM [rising, partial curve]",–
CCCn1c(C)cc(C(=O)CSc2nc3ccccc3c(=O)n2Cc2ccco2)c1C,133%,–,"29100 nM [rising, single point]"
O=C(O)CSc1nnc(-c2ccc3c(c2)OCO3)o1,33.5%,–,"16400 nM [rising, single point]"
COc1ccc(N2CCN(C(=O)COC(=O)CCOc3cc(C)ccc3C)CC2)cc1,-30.8%,"65.1 nM [falling, full curve]",–
Cc1ccc(S(=O)(=O)Nc2ccc(S(=O)(=O)N3CCOCC3)cc2)cc1[N+](=O)[O-],-6.67%,–,–
Cc1ccccc1OCC(O)Cn1c(=N)n(CCN2CCOCC2)c2ccccc21 (stereo not given),-24.1%,"146 nM [falling, full curve, poor fit]",–
Cc1ccc(OCC(=O)c2cc(C)n(-c3cc(C)on3)c2C)c([N+](=O)[O-])n1,-50%,–,"2310 nM [rising, partial curve]"
CCN1CCN(C(=S)Nc2ccc(Cl)cc2Cl)CC1,-100%,–,"25900 nM [falling, partial curve, poor fit]"
CCOc1ccc(NC(=O)CN(C)C(=O)CCN2C(=O)C3CC=CCC3C2=O)cc1OCC (stereo not given),-16.1%,"5.17 nM [falling, full curve, poor fit]","4.61 nM [falling, full curve, poor fit]"
CCOC(=O)c1sc(Nc2ccc(C)cc2C)nc1C,-21.1%,"2060 nM [rising, partial curve]",–
O=C(N/N=C1/CC2C=CCC12)c1ccc(Br)o1 (stereo not given),10.9%,"206 nM [rising, full curve, poor fit]",–
CCCCCCCC(=O)Nc1cc(C(=O)NCCC)ccc1N1CCC2(CC1)CC(c1cccc(Br)c1)=NO2,-3.56%,"5.17 nM [falling, full curve, poor fit]","5.8 nM [falling, full curve, poor fit]"
O=S(=O)(NC1CCCCC1N1CCC(O)CC1)c1ccc(Cl)cc1 (stereo not given),-6.94%,"29100 nM [falling, single point]",–
COC(=O)C(C(C)=O)C1=C/C(=N\S(=O)(=O)c2ccc(C)cc2)c2ccccc2C1=O (stereo not given),102%,"51.7 nM [rising, full curve, poor fit]","23100 nM [rising, partial curve]"

# As entered above.
# Entry of O=S(=O)(NC1CCCCC1N1CCC(O)CC1)c1ccc(Cl)cc1 (stereo not given) under AC50 [1]: 29100 nM [falling, single point]
# Entry of CCCn1c(C)cc(C(=O)CSc2nc3ccccc3c(=O)n2Cc2ccco2)c1C under cell number change: 133%

# Following part.

SMILES,cell number change,AC50 [1],AC50 [2]
CCOc1ccc(S(=O)(=O)N2CCOCC2)cc1NC(=O)CN1C(=O)NC2(CCCC2)C1=O,13.7%,"13000 nM [rising, single point]",–
CCC(NC(=O)c1ccc2nc(Cc3ccc(OC)cc3)oc2c1)c1ccncc1 (stereo not given),–,"3660 nM [falling, partial curve]",–
O=S(=O)(Nc1cccc2ccccc12)c1ccccc1F,15.1%,–,–
CCOc1ccccc1N(C(=O)Cn1nnnc1-c1ccc(C)o1)C(CC)C(=O)NC(C)(C)C (stereo not given),-27.5%,"29100 nM [falling, single point]",–
CC[C@H](C)/C=C(C)/C=C/C1=CC2=CC(=O)[C@]3(C)OC(=O)[C@@H](C(C)=O)[C@@H]3C2=CO1,-8.67%,"16400 nM [falling, single point]",–
Cc1ccc(S(=O)(=O)CCSc2cccc(C(=O)O)c2)cc1,–,"6510 nM [rising, single point]",–
Cc1cc(F)c(F)c(C(=O)NC2CC2)c1Cl,–,"1300 nM [falling, full curve]",–
CCOC(=O)c1ccc(N(C(=O)CNC(=O)c2ccco2)C(C(=O)NCC2CCCO2)c2ccc(OC)c(OC)c2)cc1 (stereo not given),-13.5%,–,–
CC(Oc1cccc(Cl)c1)C(=O)Nc1ccc(S(=O)(=O)N(C)C2CCN(C)CC2)cc1 (stereo not given),6.43%,–,"517 nM [falling, full curve]"
Cc1cccc(C)c1NC(=O)CCCSc1nc2ccccc2s1,3.35%,"820 nM [rising, partial curve, poor fit]",–
COC(=O)c1ccc(C(=O)OC)c(NC(=O)N2c3ccccc3Sc3ccccc32)c1,-52.6%,–,"23100 nM [falling, partial curve, poor fit]"
O=S(=O)(Nc1cccc2cn[nH]c12)c1ccc(F)cc1,0.391%,"18.4 nM [rising, full curve]",–
COc1ccccc1C(=O)NNC(=O)C(=O)N1CCCCC1,-25.8%,–,–
Cc1ccc(C(=O)Cn2nc(C)c([N+](=O)[O-])c2C)c(C)c1,42%,"29100 nM [rising, single point]","29100 nM [rising, single point]"
COc1ccccc1-c1cc(C(F)(F)F)nc(S(=O)(=O)CCCC(=O)Nc2cccnc2Cl)n1,-52.4%,–,–
COC(=O)c1ccccc1NC(=O)c1ccc(-c2ccccc2F)o1,-4.12%,"25.9 nM [rising, full curve]",–
COc1ccc(NC(=O)CCCNC(=O)Cn2cnc3sc(C)c(C)c3c2=O)cc1Cl,20.1%,"4110 nM [rising, full curve]",–
c1ccc(OCc2noc(CN3CC[C@@H]4CCCC[C@H]4C3)n2)cc1,8.88%,–,–
CCOCCCN(Cc1cc2cc(C)cc(C)c2[nH]c1=O)C(=O)N(CC)CC,-19.4%,–,"411 nM [rising, single point]"
